# Laboratory results reported in the supplement of paper PMC12067093, “Discovery and optimisation of a covalent ligand for TRIM25 and its application to targeted protein ubiquitination” (Chemical Science, 2025).
# Chains of the proteins cited; added tags and fusions are not shown. Lines headed by an entry give the natural chain unless they say otherwise; changes in a name come on top.
# UniProt O00186: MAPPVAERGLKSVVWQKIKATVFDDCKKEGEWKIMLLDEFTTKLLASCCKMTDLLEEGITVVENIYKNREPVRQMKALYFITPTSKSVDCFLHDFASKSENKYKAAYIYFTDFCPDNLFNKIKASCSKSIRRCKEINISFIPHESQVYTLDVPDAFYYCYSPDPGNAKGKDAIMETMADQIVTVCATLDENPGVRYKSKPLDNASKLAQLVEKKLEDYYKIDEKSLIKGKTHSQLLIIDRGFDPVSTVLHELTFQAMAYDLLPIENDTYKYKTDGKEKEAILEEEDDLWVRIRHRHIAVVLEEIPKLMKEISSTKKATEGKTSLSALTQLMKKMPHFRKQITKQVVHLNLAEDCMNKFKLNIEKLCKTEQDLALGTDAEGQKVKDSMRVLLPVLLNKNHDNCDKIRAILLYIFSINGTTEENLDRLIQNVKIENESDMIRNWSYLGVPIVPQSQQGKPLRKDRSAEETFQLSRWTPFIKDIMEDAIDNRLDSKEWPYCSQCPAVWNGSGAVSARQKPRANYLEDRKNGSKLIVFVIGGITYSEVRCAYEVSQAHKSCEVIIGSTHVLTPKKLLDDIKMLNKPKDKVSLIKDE
# UniProt Q08945, whole entry, looked up: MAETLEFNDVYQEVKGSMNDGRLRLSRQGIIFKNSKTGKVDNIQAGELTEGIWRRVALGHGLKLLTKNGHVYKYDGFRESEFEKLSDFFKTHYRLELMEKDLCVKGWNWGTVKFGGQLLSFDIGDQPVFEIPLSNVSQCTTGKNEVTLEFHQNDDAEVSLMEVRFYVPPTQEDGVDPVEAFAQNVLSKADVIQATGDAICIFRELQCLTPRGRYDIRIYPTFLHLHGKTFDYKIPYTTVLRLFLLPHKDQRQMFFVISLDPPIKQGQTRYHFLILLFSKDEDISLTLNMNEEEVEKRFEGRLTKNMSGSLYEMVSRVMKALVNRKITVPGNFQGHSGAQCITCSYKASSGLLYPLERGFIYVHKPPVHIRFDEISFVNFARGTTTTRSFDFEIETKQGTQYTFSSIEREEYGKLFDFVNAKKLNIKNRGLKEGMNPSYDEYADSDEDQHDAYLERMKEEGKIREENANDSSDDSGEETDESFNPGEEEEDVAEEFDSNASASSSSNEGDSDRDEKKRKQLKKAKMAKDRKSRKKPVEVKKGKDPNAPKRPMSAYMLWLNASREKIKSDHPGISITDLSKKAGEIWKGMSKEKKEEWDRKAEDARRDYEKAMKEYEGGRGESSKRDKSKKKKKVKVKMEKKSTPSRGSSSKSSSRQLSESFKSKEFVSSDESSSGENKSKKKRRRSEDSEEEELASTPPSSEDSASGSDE
# UniProt Q8IYB8: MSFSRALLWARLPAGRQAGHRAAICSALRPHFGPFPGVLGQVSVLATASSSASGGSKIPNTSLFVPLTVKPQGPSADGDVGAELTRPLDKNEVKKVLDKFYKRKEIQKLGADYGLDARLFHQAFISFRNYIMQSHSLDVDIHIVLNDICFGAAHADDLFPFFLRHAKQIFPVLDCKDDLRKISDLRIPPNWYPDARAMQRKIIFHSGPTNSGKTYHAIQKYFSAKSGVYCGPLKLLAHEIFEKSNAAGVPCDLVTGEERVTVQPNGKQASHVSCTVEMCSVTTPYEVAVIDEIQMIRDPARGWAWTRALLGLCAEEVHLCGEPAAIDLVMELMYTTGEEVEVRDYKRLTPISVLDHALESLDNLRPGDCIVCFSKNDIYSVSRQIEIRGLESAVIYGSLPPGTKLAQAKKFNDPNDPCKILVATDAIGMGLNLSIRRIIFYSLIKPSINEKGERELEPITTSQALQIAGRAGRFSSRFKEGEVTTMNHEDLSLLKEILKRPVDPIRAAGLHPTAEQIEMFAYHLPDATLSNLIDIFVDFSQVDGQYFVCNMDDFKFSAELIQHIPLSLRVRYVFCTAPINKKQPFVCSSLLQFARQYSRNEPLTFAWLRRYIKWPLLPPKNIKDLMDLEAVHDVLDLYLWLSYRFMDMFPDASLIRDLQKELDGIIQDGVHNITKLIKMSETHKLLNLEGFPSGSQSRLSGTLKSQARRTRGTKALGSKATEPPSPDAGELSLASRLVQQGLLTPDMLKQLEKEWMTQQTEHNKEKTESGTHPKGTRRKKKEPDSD
# UniProt Q9Y2D8: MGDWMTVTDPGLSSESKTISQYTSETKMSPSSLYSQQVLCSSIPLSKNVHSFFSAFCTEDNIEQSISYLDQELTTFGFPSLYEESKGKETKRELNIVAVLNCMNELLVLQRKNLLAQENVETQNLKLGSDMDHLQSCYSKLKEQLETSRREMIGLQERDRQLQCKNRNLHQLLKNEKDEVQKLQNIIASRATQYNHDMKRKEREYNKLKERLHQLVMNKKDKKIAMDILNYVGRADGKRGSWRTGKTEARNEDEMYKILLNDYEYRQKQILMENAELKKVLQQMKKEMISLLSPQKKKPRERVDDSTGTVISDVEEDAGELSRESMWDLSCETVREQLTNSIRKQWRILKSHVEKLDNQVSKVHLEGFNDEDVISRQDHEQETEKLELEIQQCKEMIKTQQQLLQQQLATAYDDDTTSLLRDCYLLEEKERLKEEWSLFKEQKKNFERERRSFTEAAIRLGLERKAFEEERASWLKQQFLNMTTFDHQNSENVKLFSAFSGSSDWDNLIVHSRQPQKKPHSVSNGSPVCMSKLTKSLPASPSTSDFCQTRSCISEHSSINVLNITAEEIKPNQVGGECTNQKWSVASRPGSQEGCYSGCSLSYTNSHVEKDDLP
# UniProt Q15833: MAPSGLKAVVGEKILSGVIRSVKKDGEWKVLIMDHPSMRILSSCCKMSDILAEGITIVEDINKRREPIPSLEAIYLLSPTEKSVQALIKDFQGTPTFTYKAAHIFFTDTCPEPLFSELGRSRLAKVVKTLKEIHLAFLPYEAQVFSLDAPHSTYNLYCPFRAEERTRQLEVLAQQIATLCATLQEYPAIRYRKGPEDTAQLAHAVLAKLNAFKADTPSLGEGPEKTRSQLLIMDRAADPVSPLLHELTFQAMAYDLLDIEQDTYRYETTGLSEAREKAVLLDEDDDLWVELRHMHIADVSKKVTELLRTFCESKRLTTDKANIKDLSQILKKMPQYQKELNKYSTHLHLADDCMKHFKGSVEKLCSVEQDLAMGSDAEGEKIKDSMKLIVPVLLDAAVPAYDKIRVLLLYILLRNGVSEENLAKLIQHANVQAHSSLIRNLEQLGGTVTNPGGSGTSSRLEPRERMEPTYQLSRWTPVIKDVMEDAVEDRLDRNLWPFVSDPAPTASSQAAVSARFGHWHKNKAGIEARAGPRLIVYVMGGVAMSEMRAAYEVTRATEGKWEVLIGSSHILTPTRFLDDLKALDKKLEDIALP
# UniProt Q8TCJ2: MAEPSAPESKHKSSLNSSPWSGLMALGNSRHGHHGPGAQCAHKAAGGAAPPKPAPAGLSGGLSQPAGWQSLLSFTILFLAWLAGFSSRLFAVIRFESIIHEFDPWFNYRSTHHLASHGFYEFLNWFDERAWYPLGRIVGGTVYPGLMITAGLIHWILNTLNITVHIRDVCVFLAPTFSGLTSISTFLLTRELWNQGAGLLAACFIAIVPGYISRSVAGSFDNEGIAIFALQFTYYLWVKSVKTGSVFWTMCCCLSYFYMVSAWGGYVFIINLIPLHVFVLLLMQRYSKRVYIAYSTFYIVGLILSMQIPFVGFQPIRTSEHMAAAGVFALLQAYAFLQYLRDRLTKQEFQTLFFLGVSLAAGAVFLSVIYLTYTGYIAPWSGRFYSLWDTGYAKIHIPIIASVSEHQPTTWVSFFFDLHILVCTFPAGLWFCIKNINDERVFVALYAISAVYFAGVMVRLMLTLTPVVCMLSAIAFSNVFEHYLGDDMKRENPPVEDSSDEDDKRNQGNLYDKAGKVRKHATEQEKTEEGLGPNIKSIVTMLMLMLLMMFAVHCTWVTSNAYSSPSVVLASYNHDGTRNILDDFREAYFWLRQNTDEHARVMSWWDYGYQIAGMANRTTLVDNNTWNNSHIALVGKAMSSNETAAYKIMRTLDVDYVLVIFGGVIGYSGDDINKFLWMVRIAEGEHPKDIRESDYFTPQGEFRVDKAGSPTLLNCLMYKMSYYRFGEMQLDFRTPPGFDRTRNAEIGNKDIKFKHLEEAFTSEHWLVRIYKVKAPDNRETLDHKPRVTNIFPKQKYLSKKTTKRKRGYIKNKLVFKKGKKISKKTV
# UniProt Q13242, whole entry, looked up: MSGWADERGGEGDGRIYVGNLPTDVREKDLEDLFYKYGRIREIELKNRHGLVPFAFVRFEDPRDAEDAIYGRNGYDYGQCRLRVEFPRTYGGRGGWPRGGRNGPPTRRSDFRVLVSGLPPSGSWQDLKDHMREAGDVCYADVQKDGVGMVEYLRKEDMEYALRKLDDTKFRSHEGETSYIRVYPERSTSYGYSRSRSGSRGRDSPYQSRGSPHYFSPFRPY
# UniProt Q8NBK3: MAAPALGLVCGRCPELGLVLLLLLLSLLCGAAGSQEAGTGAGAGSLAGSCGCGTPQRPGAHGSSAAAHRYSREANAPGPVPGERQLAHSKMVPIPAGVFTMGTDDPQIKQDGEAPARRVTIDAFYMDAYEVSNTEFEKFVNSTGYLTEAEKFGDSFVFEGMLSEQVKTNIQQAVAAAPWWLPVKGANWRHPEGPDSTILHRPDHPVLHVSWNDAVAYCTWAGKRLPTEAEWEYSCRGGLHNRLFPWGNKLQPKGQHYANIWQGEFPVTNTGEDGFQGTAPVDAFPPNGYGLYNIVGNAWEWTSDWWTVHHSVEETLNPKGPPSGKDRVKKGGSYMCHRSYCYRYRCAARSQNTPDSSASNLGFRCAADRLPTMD
# UniProt O95630, whole entry, looked up: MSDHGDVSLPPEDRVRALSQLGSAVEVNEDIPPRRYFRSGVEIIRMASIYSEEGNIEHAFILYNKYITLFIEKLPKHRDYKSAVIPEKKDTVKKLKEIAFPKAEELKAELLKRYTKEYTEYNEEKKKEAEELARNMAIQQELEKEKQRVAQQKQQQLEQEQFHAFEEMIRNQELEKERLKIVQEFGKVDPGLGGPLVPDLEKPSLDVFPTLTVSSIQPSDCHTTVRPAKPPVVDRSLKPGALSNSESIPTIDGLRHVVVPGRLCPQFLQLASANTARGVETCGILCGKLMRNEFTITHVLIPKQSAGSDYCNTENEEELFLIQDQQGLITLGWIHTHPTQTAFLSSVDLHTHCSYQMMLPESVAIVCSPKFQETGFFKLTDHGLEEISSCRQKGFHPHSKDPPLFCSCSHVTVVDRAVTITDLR
# UniProt Q13033: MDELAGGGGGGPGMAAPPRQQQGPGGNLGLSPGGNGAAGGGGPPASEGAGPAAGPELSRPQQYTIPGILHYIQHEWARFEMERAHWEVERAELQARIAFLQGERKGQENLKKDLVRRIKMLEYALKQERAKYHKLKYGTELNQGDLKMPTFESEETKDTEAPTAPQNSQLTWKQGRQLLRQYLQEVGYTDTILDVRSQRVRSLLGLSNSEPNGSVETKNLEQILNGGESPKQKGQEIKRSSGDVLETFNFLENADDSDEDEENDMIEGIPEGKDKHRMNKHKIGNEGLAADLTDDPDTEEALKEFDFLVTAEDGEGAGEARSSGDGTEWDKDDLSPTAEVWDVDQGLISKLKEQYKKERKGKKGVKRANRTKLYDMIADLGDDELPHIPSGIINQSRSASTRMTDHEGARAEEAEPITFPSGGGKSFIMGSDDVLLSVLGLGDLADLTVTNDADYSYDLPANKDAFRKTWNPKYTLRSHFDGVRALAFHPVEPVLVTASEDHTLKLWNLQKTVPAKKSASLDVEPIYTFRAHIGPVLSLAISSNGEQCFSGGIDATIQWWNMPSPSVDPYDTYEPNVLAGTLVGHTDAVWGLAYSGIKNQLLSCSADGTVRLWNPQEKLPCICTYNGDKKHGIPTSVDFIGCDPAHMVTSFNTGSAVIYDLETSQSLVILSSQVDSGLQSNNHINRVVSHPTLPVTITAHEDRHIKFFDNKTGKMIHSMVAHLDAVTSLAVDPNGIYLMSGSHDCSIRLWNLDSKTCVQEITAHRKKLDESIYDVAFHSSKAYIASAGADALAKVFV
# UniProt P08240: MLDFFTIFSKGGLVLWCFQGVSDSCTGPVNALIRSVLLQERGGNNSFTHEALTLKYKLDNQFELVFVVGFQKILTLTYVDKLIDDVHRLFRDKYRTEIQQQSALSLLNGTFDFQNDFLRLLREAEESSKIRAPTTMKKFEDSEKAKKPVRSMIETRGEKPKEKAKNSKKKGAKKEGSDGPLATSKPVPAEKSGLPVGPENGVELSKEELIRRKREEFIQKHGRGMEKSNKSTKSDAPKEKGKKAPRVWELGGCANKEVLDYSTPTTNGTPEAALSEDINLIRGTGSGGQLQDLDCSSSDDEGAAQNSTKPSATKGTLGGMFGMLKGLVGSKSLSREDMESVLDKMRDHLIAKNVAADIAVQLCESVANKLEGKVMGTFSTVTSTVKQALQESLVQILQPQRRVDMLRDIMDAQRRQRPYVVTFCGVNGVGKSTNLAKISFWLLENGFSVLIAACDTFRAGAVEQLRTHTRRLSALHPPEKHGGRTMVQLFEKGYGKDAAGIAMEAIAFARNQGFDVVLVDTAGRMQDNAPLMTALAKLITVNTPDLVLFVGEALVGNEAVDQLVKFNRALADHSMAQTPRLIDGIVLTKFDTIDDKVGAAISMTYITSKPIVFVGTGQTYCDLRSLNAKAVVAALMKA
# The list shows a part of the results.
# Compound: CC1Cc2ccccc2N1C(=O)C1CCCN(C1)C(=O)CCl (mixture of isomers) [TRIM25 ligand 11 (diastereomer mixture)]
# Experiment: probe-labelled cysteine peptide fold change vs DMSO (competition) (log2 fold change); higher = less target engagement (more negative = stronger competition)
# Details: 50 µM; THP-1; incubation time: 4 h
# 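Also: competitive chemoproteomic profiling in live THP-1 cells with an iodoacetamide desthiobiotin (IA-DTB) probe, comparing probe-labelled peptide intensities in compound-treated cells against DMSO-treated controls.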
row,Target,probe-labelled cysteine peptide fold change
1,STXBP3_O00186_546_CAYEVSQAHK (UniProt O00186),0.132
2,SSRP1_Q08945_343_ITVPGNFQGHSGAQCITCSYK (UniProt Q08945),0.249
3,STAT6_P42226_228_CESLVDIYSQLQQEVGAAGGELEPK (UniProt P42226),-0.12
4,SURF2_Q15527_93_CPEHVLR (UniProt Q15527),0.114
5,STIP1_P31948_461_ALDLDSSCK (UniProt P31948),-0.0246
6,SUPT16H_Q9Y5B9_153_SWNDCLNK (UniProt Q9Y5B9),0.0947
7,STXBP5_Q5T5C0_697_SRQPSGAGLCDISEGTVVPEDR (UniProt Q5T5C0),-0.177
8,SUPV3L1_Q8IYB8_251_SNAAGVPCDLVTGEER (UniProt Q8IYB8),-0.225
9,SRPK2_P78362_223_IIHTDIKPENILMCVDDAYVR (UniProt P78362),-0.19
10,SRPRB_Q9Y5M8_73_AVLLVGLCDSGK (UniProt Q9Y5M8),0.154
11,STXBP3_O00186_48_LLASCCK (UniProt O00186),0.0833
12,SUPV3L1_Q8IYB8_175_QIFPVLDCKDDLRK (UniProt Q8IYB8),-0.144
13,STK32C_Q86UX6_379_LHCDPTFELEEMILESRPLHK (UniProt Q86UX6),-0.102
14,SSX2IP_Q9Y2D8_529_KPHSVSNGSPVCMSK (UniProt Q9Y2D8),-0.226
15,STXBP2_Q15833_45_ILSSCCK (UniProt Q15833),0.179
16,STT3B_Q8TCJ2_40_HGHHGPGAQCAHK (UniProt Q8TCJ2),-0.272
17,SUPT4H1_P63272_16_ACLLCSLVK (UniProt P63272),0.0428
18,SRSF9_Q13242_80_NGYDYGQCR (UniProt Q13242),-0.0686
19,SUMF1_Q8NBK3_365_CAADRLPTMD (UniProt Q8NBK3),-0.122

# Part of the list above, with bars between the fields:
row | Target | probe-labelled cysteine peptide fold change
14 | SSX2IP_Q9Y2D8_529_KPHSVSNGSPVCMSK (UniProt Q9Y2D8) | -0.226
15 | STXBP2_Q15833_45_ILSSCCK (UniProt Q15833) | 0.179
16 | STT3B_Q8TCJ2_40_HGHHGPGAQCAHK (UniProt Q8TCJ2) | -0.272

# The list goes on:

row,Target,probe-labelled cysteine peptide fold change
1,SUPT5H_O00267_740_VELHSTCQTISVDR (UniProt O00267),-0.21
2,STAMBP_O95630_282_GVETCGILCGK (UniProt O95630),0.102
3,STXBP3_O00186_114_AAYIYFTDFCPDNLFNK (UniProt O00186),0.141
4,SUZ12_Q15022_531_TPITHILVCR (UniProt Q15022),0.0908
5,STAG1_Q8WVM7_531_QESALIELMVCTIR (UniProt Q8WVM7),0.137
6,STK16_O75716_174_DLKPTNILLGDEGQPVLMDLGSMNQACIHVEGSR (UniProt O75716),-0.202
7,SSH3_Q8TE77_413_AQGTHVLVHCK (UniProt Q8TE77),0.0575
8,STEAP3_Q658P3_140_ESNAEYLASLFPTCTVVK (UniProt Q658P3),-0.0189
9,STAMBP_O95630_390_LTDHGLEEISSCR (UniProt O95630),-0.0455
10,STK11IP_Q8N1F8_538_EVEAELCRPLLVCPLEGPEGVR (UniProt Q8N1F8),-0.0493
11,STK24_Q9Y6E0_394_SQACGGNLGSIEELR (UniProt Q9Y6E0),-0.159
12,STRN3_Q13033_604_NQLLSCSADGTVR (UniProt Q13033),0.262
13,STT3A_P46977_637_VDREGSPVLLNCLMYK (UniProt P46977),0.167
14,STAT1_P42224_324_QPCMPTHPQRPLVLK (UniProt P42224),0.0101
15,SRPRA_P08240_363_NVAADIAVQLCESVANKLEGK (UniProt P08240),-0.212
16,STARD5_Q9NSY2_67_GEGIVYGTLEEVWDCVK (UniProt Q9NSY2),-0.116
17,STK39_Q9UEW8_525_LASGCDGSEIPDEVK (UniProt Q9UEW8),0.0755
18,SRXN1_Q9BYN0_99_GAQGGDYFYSFGGCHR (UniProt Q9BYN0),0.494
